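Growth of Mycobacterium tuberculosis over 3 days (7H9 medium with glucose and tyloxapol); the read-out is not stated. Concentration: 50 µM. The record gives no direction; compounds that gave an IC50 in retests scored well above the rest, so higher reads as more growth inhibition. About 69,000 compounds were tested under these conditions; 1.1% (about 760) showed 50% or more at least once.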

Values are the deposited “Percent Effect”, in %.
The record does not define 0% and 100%; most values in the screen are far below 50% and negative numbers occur (in some assays of this library far below -100).
The compounds are a random part of those screened.
Two or more numbers in one place are separate tests of the same structure; such repeats can differ widely.

* COc1cccc(S(=O)(=O)CCN2CCN(CCO)CC2)c1 : 22.19%
* CC1(C)COCCN1C(=O)Cc1csc(Cc2ccccn2)n1 : 2.921%
* CCOCCOC(C)C(=O)Nc1ccc2[nH]c(C)cc2c1 (stereo not given) : 15.06%
* CC(CO)N(C)C(=O)c1cn(-c2ccc(Br)cc2)cn1 (stereo not given) : 18.12%
* CCN1CCN(C2CCN(Cc3noc(C)n3)CC2)C1=O : 5.065%
* Cc1cc(C)n(CC2CCCCN2CC(=O)Nc2nnc(C)s2)n1 (stereo not given) : -9.842%
* CCSc1cc(C(=O)N(Cc2cnn(C)c2)C(C)C)ccn1 : 23.84% and 3.58%
* COc1ccc(-n2ncc(C(C)NC3CCSCC3)c2C)cc1 (stereo not given) : -0.3805%
* Oc1nc(-c2cnccn2)nc2c1CCN(Cc1ccccn1)C2 : 13.33%
* O=C(O)C(F)(F)F.[H][C@]12C[C@@H](CN(C)C)N(C(C)=O)[C@@]1([H])CCN(C(=O)Cc1cccs1)C2 : -28.17%
* CS(=O)(=O)N1CCCC1c1cccc(Nc2nccs2)n1 (stereo not given) : -5.578%
* Cc1nnc(C(C)N2CCN(Cc3ccc4c(c3)OCO4)CC2)o1 (stereo not given) : 0.05262%
* Cc1cccc(C(=O)Nc2cccc3c2C(=O)NC3)n1 : 14.73%
* Cc1noc(C2CCN(C(=O)C3CCCO3)CC2)n1 (stereo not given) : 8.464% and 26.87%
* [H][C@]12CCN(C(=O)Cc3cccc(OC)c3)[C@@]1([H])CCC(=O)N2 : 1.533% and -22.39%
* [H][C@@]12COC[C@@H](C(=O)NC)[C@]1([H])CN(C(=O)c1ccc(C)c(F)c1)C2 : 0.1261% and 3.244%
* CC(C)N(C)Cc1nnn2c1CN(Cc1cccnc1)CCC2.O=C(O)C(F)(F)F.O=C(O)C(F)(F)F.O=C(O)C(F)(F)F : 6.333%
* CC(C)n1ccnc1C1CCN(Cc2ccc(Cl)c(F)c2)CC1 : 2.397%
* Cc1cnn(CC2CCCCN2C(=O)c2c(C)noc2C)c1 (stereo not given) : -31.08%
* [H][C@@]12C[C@H](c3nc(C)no3)CN(S(=O)(=O)CCC)[C@]1([H])CCO2 : 10.31%
* CSC(C)(C)CNC(=O)NCc1cccc(-n2ccnc2)c1 : -0.3142%
* CC(C)(C)c1ncc(S(C)(=O)=O)c(C2CCCNC2)n1 (stereo not given) : 23.61%
* CC(NC(=O)CCOc1ccc(F)cc1)c1nnc2n1CCCCC2 (stereo not given) : -26.99%
* COCCCN1CC2(CCN(C(=O)Cc3csc(C)n3)CC2)CC1=O : 2.309%
* O=C(O)C(F)(F)F.[H][C@@]12CN(Cc3cccs3)C[C@]1([H])C(=O)N(c1ccsc1)C2 : 54.89%
* CSCC1CCN(c2nc(N)ncc2C)CC1 : -5.985% and -38.12%
* COCC1CCN(C(=O)c2cc(O)nc(CC(C)C)c2)CC1 : -4.979% and 3.163%
* CCOc1ncccc1CNC(=O)NC(C)Cn1cccn1 (stereo not given) : -10.26%
* CC(c1cccnc1)N(C)Cc1csc(-c2ccccn2)n1 (stereo not given) : 3.845% and 6.704%
* O=C(CN1CCCC(c2ccn[nH]2)C1)Nc1nncs1 (stereo not given) : 13.4%
* CC(C)c1noc(CCCC(=O)N2CCN(Cc3cccnc3)CC2)n1 : -7.608% and -52.66%
* CNc1cc(C2CN(Cc3cccnc3NC)CCO2)nc(C)n1 (stereo not given) : 18.28%
* CS(=O)(=O)NCCNC(=O)c1cnc(-c2ccccc2)nc1 : 1.886% and 12.97%
* CCCc1ccc(C(=O)N2CCc3c(nc(N(C)C)[nH]c3=O)C2)cc1 : -10.81%
* CC(C)CN1CCCn2nc(CNC(=O)c3cccnc3O)cc2C1 : 5.419%
* CCOCc1nn(C)c2c1CN(CCO)CC2 : -27.77%
* Cc1cc(C)c(CNC(=O)N2CCCC2c2ccccn2)c(=O)[nH]1 (stereo not given) : 12.46%
* Cc1c(C(=O)N2CCC3(CCCN(CC4CC4)C3=O)C2)ccn1C (stereo not given) : -38.97%
* CCN(CC)CC1CN(Cc2c(C)noc2C)Cc2nccn2C1 (stereo not given) : 1.842% and 14.29%
* COc1cccc(N2CCN(Cc3cccc(CCN)c3)CC2=O)c1 : 34.63%
* NC1(c2nc(-c3cccs3)cc(=O)[nH]2)CCCC1 : -17.59% and 7.388%
* CCOCCN1CCN(CC(=O)N2CCC2)CC1CC (stereo not given) : 4.99%
* Cc1ccn(CCNc2ncnc3c2CCN(Cc2ncc[nH]2)CC3)n1 : 6.163%
* O=C(NCCOc1ccc2c(c1)OCO2)N1CCCC(CO)C1 (stereo not given) : -11.57%
* CC(C)N1CCC(N(C)c2ccnc(N(C)C)n2)CC1 : 25.56%
* Cc1noc(C)c1CN1CCCC2(C1)CN(c1nncs1)CCO2 (stereo not given) : -2.796% and 14.23%
* CN(Cc1ccc2c(c1)OCO2)C(=O)Cn1cccnc1=O : -19.85%
* CCOC1COC2(CCN(CC3CCOCC3)CC2)C1.O=C(O)C(F)(F)F (stereo not given) : -5.613%
* CNC(=O)C1CN(c2ccnc(C)n2)CCN(C2CCOCC2)C1 (stereo not given) : -19.25%

The last 3 entries again:

compound,effect
CN(Cc1ccc2c(c1)OCO2)C(=O)Cn1cccnc1=O,-19.85%
CCOC1COC2(CCN(CC3CCOCC3)CC2)C1.O=C(O)C(F)(F)F (stereo not given),-5.613%
CNC(=O)C1CN(c2ccnc(C)n2)CCN(C2CCOCC2)C1 (stereo not given),-19.25%

Data taken from ChEMBL document CHEMBL3988442, “University of Dundee, Small-Polar-MMV Screening Library” (2021).